Reference: PubChem BioAssay AID602196 (INSERM, 2012)
Assay: 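Modifiers of cisplatin sensitivity in A549 cells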. Cell system: human A549 lung cancer cells. Knock-down reagent: siRNA pair against human genes. Time to read-out: 48 h transfection before cisplatin; time from cisplatin to read-out not stated. Treatment: cisplatin at a dose killing half of control-siRNA cells; exact dose and duration not given. Read-out: 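Shift in cisplatin death relative to control siRNA, from -50 (all cells die) to +50 (no cells die); siRNAs harmful on their own scored 0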. Scale: two-siRNA summed score (-2 to +2): higher = both siRNAs protect from cisplatin killing; -2 means both sensitise. Rule for the call: 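siRNAs harmful alone (LDH or WST-1) get 0; others get +1 for less and -1 for more cisplatin killing; genes are active when the two siRNAs give the same sign, summing to ±2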. Meaning of the calls: active = both siRNAs shift cisplatin killing the same way; inactive = no consistent shift, or siRNA harmful alone.
The deposit covers about 23,000 reagents; below is a random part of them. Of all reagents, 455 (2%) are marked active. 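Active includes both protection and sensitisation; some change values fall well beyond the stated -50 to +50 range.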 Not all columns of the deposit are shown. No sequences are given here. Not given: the amount of reagent.

Knock-down of SLC39A6 came out at: two-siRNA summed score (-2 to +2) = 0; inactive. Knock-down of LOC442175 came out at: two-siRNA summed score (-2 to +2) = 2; active. DENND3 scored two-siRNA summed score (-2 to +2) = 1; inactive. Against PERP, the entry reads two-siRNA summed score (-2 to +2) = 0; inactive. Silencing of DENR came out at: two-siRNA summed score (-2 to +2) = 0; inactive. Knock-down of URM1 resulted in: two-siRNA summed score (-2 to +2) = 0; inactive.

For DEFB126 the deposit lists two-siRNA summed score (-2 to +2) = 0; inactive. Against LOC338756, the values are two-siRNA summed score (-2 to +2) = 1; inactive. Against MEIS1, the entry reads two-siRNA summed score (-2 to +2) = 0; inactive. With knock-down of LENG8, the screen gave two-siRNA summed score (-2 to +2) = 0; inactive. GSG1 showed two-siRNA summed score (-2 to +2) = 0; inactive. After knock-down of TENT5D, the screen gave two-siRNA summed score (-2 to +2) = 0; inactive.

With knock-down of LOC441643, the record shows two-siRNA summed score (-2 to +2) = 1; inactive.

No new results follow: an excerpt of the list.
MEIS1 | two-siRNA summed score (-2 to +2) = 0; Call = inactive
LENG8 | two-siRNA summed score (-2 to +2) = 0; Call = inactive
GSG1 | two-siRNA summed score (-2 to +2) = 0; Call = inactive

Next records:
Against LOC388235, the entry reads two-siRNA summed score (-2 to +2) = 0; inactive. CLTB showed two-siRNA summed score (-2 to +2) = 0; inactive. Silencing of ARHGDIB resulted in: two-siRNA summed score (-2 to +2) = 0; inactive. With knock-down of ZNF594, the record shows two-siRNA summed score (-2 to +2) = 0; inactive. For MAP3K5, the entry reads two-siRNA summed score (-2 to +2) = 0; inactive. Silencing of SFRP4 resulted in: two-siRNA summed score (-2 to +2) = 0; inactive.

LOC442593 scored two-siRNA summed score (-2 to +2) = 1; inactive. DIS3L scored two-siRNA summed score (-2 to +2) = 0; inactive.
